Laboratory results: PubChem BioAssay AID743121 (NCATS, 2013)

Purpose: 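Partners whose loss is lethal together with topoisomerase I blockade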 (primary screen)
Cells: MDA-MB-231 cells, a human breast cancer line
Reagents: single siRNA against human genes, 20 nM siRNA (0.8 pmol per well)
Time to read-out: 120 h (drug added 48 h after transfection, read 72 h later)
Treatment: camptothecin 20 nM (about EC30) for 72 h; vehicle 0.1% DMSO in parallel plates
Detection: 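Cell viability by ATP luminescence (CellTiter-Glo) as % of non-targeting siRNA wells, and the log2 ratio of viability without drug over viability with camptothecin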
Direction: log2 vehicle/camptothecin viability: higher = stronger sensitisation to camptothecin; viability with camptothecin: higher = more viable cells
Active means: 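Each gene scored by redundant siRNA activity (RSA) over its individual siRNA ratios; a gene is called active at p < 0.001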
Here is a random part of about 26,000 deposited reagents. Over the whole deposit, 167 (0.63%) were called active. 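Calls are per gene from RSA p-values that are not deposited; an individual active-marked siRNA can sensitise only weakly.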 Reagents against one gene are numbered here. Further read-outs or replicates are left out here.

| gene symbol | reagent | log2 vehicle/camptothecin viability | viability with camptothecin (% of control) | activity call |
| --- | --- | --- | --- | --- |
| KCNAB1 | 1 | -0.147 | 73.9 | inactive |
| KCNAB1 | 2 | -0.156 | 91 | inactive |
| KCNAB1 | 3 | -0.461 | 118 | inactive |
| KCNAB1 | 4 | -0.0714 | 97.9 | inactive |
| CCL25 | 1 | -0.265 | 17.5 | inactive |
| CCL25 | 2 | 0.0443 | 90.1 | inactive |
| CCL25 | 3 | -0.215 | 78.4 | inactive |
| CCL25 | 4 | -0.0176 | 109 | inactive |
| INPP4B | 1 | -0.0581 | 83.4 | inactive |
| INPP4B | 2 | -0.0791 | 66.3 | inactive |
| INPP4B | 3 | -0.46 | 58.9 | inactive |
| INPP4B | 4 | -0.364 | 101 | inactive |
| CILP | 1 | -0.326 | 82.3 | inactive |
| CILP | 2 | -0.0589 | 93.6 | inactive |
| CILP | 3 | -0.101 | 121 | inactive |
| CILP | 4 | -0.114 | 117 | inactive |
| UBAC1 | 1 | -0.141 | 98.8 | inactive |
| UBAC1 | 2 | -0.0711 | 115 | inactive |
| UBAC1 | 3 | -0.00454 | 101 | inactive |
| UBAC1 | 4 | -0.0298 | 20.3 | inactive |
| SLC4A10 | 1 | -0.0398 | 105 | inactive |
| SLC4A10 | 2 | -0.447 | 67.8 | inactive |
| SLC4A10 | 3 | -0.117 | 70 | inactive |
| SLC4A10 | 4 | 0.275 | 85.9 | inactive |
| NEXN | 1 | -0.2 | 72.1 | inactive |
| NEXN | 2 | -0.276 | 92.1 | inactive |
| NEXN | 3 | -0.308 | 103 | inactive |
| NEXN | 4 | 0.068 | 50.5 | inactive |
| TAP1 | 1 | 0.204 | 92.9 | inactive |
| TAP1 | 2 | -0.255 | 67.4 | inactive |
| TAP1 | 3 | -0.545 | 97.6 | inactive |
| TAP1 | 4 | 0.391 | 30.9 | inactive |
| PIGK | 1 | -0.0223 | 81 | inactive |
| PIGK | 2 | -0.239 | 89.4 | inactive |
| PIGK | 3 | -0.313 | 92.9 | inactive |
| PIGK | 4 | -0.265 | 103 | inactive |
| DAOA | 1 | -0.238 | 89.2 | inactive |
| DAOA | 2 | 0.187 | 70.5 | inactive |
| DAOA | 3 | -0.161 | 23.7 | inactive |
| DAOA | 4 | 0.279 | 28.4 | inactive |
| TIMP4 | 1 | 0.0822 | 75.8 | inactive |
| TIMP4 | 2 | 0.0804 | 84.7 | inactive |
| TIMP4 | 3 | 0.188 | 67.4 | inactive |
| TIMP4 | 4 | -0.22 | 94.5 | inactive |
| H2AZ1 | 1 | 0.261 | 65.1 | inactive |
| H2AZ1 | 2 | -0.4 | 91.5 | inactive |
| H2AZ1 | 3 | -0.146 | 109 | inactive |
| H2AZ1 | 4 | -0.0194 | 84.3 | inactive |
| AZIN1 | 1 | -0.0836 | 92.4 | inactive |
| AZIN1 | 2 | -0.128 | 90 | inactive |
| AZIN1 | 3 | -0.457 | 106 | inactive |
| AZIN1 | 4 | 1.98 | 8.7 | inactive |
| UBQLN3 | 1 | -0.299 | 104 | inactive |
| UBQLN3 | 2 | -0.196 | 64.2 | inactive |
| UBQLN3 | 3 | 0.097 | 95.3 | inactive |
| UBQLN3 | 4 | -0.58 | 91.3 | inactive |
| GRXCR1 | 1 | -0.159 | 112 | inactive |
| GRXCR1 | 2 | -0.24 | 60.1 | inactive |
| GRXCR1 | 3 | -0.386 | 84.6 | inactive |
| GRXCR1 | 4 | 0.858 | 15 | inactive |
| SLC25A13 | 1 | 0.24 | 84.4 | inactive |
| SLC25A13 | 2 | -0.193 | 65.7 | inactive |
| SLC25A13 | 3 | -0.106 | 71.2 | inactive |
| FMO1 | 1 | 0.364 | 73.3 | inactive |
| FMO1 | 2 | -0.263 | 48.4 | inactive |
| FMO1 | 3 | 0.0434 | 58.2 | inactive |
| FMO1 | 4 | -0.164 | 101 | inactive |
| CYP17A1 | 1 | -0.432 | 41.1 | inactive |
| CYP17A1 | 2 | -0.388 | 56.1 | inactive |
| CYP17A1 | 3 | -0.126 | 91.7 | inactive |

Copied from the entries so far for reference:
| gene symbol | reagent | log2 vehicle/camptothecin viability | viability with camptothecin (% of control) | activity call |
| --- | --- | --- | --- | --- |
| INPP4B | 3 | -0.46 | 58.9 | inactive |
| INPP4B | 4 | -0.364 | 101 | inactive |
| CILP | 1 | -0.326 | 82.3 | inactive |
